In US20200399375A1 one finds binding data, which are given here for 1 molecule.

Amino acid sequences for entries named in this document (tags omitted). A change or cut given only in a name is not applied to a line headed by its entry. Residues count along the entry.
UniProt Q9NZQ7, residues 19-239: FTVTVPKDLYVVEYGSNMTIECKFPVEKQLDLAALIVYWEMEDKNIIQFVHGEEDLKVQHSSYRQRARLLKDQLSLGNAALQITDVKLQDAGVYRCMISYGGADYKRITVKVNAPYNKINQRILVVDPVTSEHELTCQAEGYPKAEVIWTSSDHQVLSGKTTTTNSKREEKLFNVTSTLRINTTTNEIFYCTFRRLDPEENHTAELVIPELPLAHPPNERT

Results are given in words; binding and its absence hold for the method and conditions named. Some binding calls cover weakened binding; strength is not graded here.

The target of this assay is human PD-L1 antigen (huPD-L1-his, Sino biological, 10084-H08H-200) (human) (UniProt Q9NZQ7). The assay can be described thus: BIACORE (Test 4). A general note: In SPR one partner is held on a chip, and binding of the other changes the refractive index at the surface.

B1: humanized 24D5, CDRs directly embedded into the humanized template (24D5_VH.1 / 24D5_VL.1, Grafted) (antibody, V domains shown)
VH: QVQLVQSGAEVKKPGASVKVSCKASGYTFTSYWMHWVRQAPGQGLEWMGRIHPNSGGTSYNEKFKNRVTMTRDTSTSTVYMELSSLRSEDTAVYYCARGGSSYDYFDYWGQGTTVTVSS
VL: DIVLTQSPASLAVSPGQRATITCRASESVSIHGTHLMHWYQQKPGQPPKLLIYAASNLESGVPARFSGSGSGTDFTLTINPVEANDTANYYCQQSFEDPLTFGQGTKLEIK
Turning to B1, the binding entry is reported as “binds”.
